# Test results taken from PubChem BioAssay AID1671190 (National Center for Advancing Translational Sciences (NCATS), 2021).
# Amino acid sequences for entries named in this document (tags omitted). A change or cut given only in a name is not applied to a line headed by its entry.
# UniProt P18054: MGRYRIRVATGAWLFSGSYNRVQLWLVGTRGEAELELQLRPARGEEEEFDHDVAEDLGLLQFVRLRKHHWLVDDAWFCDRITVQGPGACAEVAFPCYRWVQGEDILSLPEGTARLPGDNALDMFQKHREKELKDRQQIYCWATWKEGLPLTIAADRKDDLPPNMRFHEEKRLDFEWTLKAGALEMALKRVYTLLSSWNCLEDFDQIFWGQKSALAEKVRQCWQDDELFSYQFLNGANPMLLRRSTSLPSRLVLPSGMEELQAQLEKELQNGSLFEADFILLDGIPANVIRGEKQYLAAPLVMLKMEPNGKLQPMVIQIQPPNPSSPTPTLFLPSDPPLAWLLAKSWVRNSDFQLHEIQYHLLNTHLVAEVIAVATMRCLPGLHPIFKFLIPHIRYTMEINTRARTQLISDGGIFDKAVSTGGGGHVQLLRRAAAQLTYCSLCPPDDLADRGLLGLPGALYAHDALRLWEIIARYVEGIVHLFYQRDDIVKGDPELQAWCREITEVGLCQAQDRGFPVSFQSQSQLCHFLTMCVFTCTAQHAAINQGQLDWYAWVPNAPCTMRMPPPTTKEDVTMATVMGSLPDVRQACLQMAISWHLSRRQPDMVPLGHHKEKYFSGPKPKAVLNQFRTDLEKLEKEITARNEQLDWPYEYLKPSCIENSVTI
# Values joined by “and” are separate entries in the source; they are usually repeats but may differ in a detail not shown here. Equal entries are not always repeated. In all, about 580,000 compounds went through this assay and about 6,100 (1.1%) were called active. The inconclusive results got no clear call from the source; some entries with a clear call stand among them for comparison. Calls come from the whole dose curve; as a rule, active = well fitted inhibition curve with a large enough effect; inconclusive = small, poorly fitted or top-dose-only effect, or another doubt; inactive = no such curve, though single readings can be large or run the other way. Potencies beside an inconclusive call are fits to weak or partial responses and may not hold up.
# Target: Polyunsaturated fatty acid lipoxygenase ALOX12 (Homo sapiens) (UniProt P18054)
# Test: Primary qHTS assay for inhibitors of human arachidonate 12S-lipoxygenase (ALOX12): Round 2
# Conditions: purified 12hLO, xylenol orange hydroperoxide absorbance; series mostly up to 108 µM
# Summary of the method: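 Purified human 12hLO (150 nM final) in 25 mM Hepes, 0.01% Triton X-100, pH 7.0 was preincubated 15 min at room temperature with compound. Then 40 uM arachidonic acid was added, 30 min. Hydroperoxide was read by Fe-XO absorbance ratio 573/405 nm.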
# Potency is the fitted concentration of half-maximal effect.
row,SMILES,Potency
1,CC#C[C@]1(O)CC[C@H]2[C@@H]3CCC4=CC(=O)CCC4=C3[C@@H](c3ccc(N(C)C)cc3)C[C@@]21C,"inactive and inconclusive: 501 nM [inhibitor, full curve, poor fit] and inconclusive: 12.8 µM [inhibitor, partial curve, poor fit]"
2,O=CC1=C(N2CCOCC2)/C(=C\c2ccccc2)CC1,inactive
3,Cc1c(/C=N/n2cnnc2)c2ccccc2n1CCOc1ccccc1,"inconclusive: 1.58 µM [inhibitor, full curve, poor fit]"
4,O=S(=O)(c1ccc(Oc2ccc(Br)cc2)cc1)N1CCOCC1,inactive
5,O=C(CSc1nccn1Cc1ccc(Cl)cc1)Nc1ccc2c(c1)OCO2,"inconclusive: 89.1 µM [inhibitor, partial curve, poor fit]"
6,CC1(CCCCN2CCOCC2)COc2ccc(C(=O)Nc3ccc(Cl)cc3)cc2N1 (configuration not stated),"inconclusive: 28.2 µM [inhibitor, full curve]"
7,CCCCn1c(=S)[nH]c2cc(S(=O)(=O)N3CCOCC3)ccc21,"inconclusive: 44.7 µM [inhibitor, partial curve, poor fit]"
8,CCCOc1ccc(CNC(=O)CS(=O)(=O)Cc2nc(-c3ccccc3C)oc2C)cc1,inactive
9,O=C(Cc1ccc2c(c1)CCCC2)Nc1ccc2ccccc2c1,inactive
10,COc1ccc(NC(=O)C[C@@H]2C(=O)N(Cc3ccccc3)CC2(C)C)cc1,inactive
11,Cc1ccc(CN(C)CC(=O)NC(=O)NCc2ccco2)cc1,"inconclusive: 11.2 µM [inhibitor, partial curve, poor fit]"
12,CCCc1[nH]nc2c1C(c1cc(OC)ccc1F)C(C#N)=C(N)O2 (configuration not stated),"inconclusive: 56.2 µM [inhibitor, partial curve, poor fit]"
13,CCOc1ccc(C(=O)NC(=S)Nc2cccc(S(=O)(=O)NC3=NCCC3)c2)cc1,"inconclusive: 25.1 µM [inhibitor, partial curve, poor fit]"
14,COC(=O)C1(C(=O)OC)C/C=C\CN(S(=O)(=O)c2ccccc2[N+](=O)[O-])CC1,"inconclusive: 79.4 µM [inhibitor, partial curve, poor fit]"
15,COC(=O)c1cc(NC(=O)c2cccc(C(F)(F)F)c2)c(=O)oc1C/C=N/OCc1cccc(Cl)c1Cl,"inconclusive: 35.5 µM [inhibitor, single point]"
16,COc1cc([N+](=O)[O-])ccc1-c1ccc(/C=N/NC(=O)OC(C)(C)C)o1,"inconclusive: 100 µM [inhibitor, partial curve, poor fit]"
17,COc1ccc(C(C(=O)O)N2CCN(Cc3csc(C)n3)CC2)c(C)c1 (configuration not stated),active: 22.4 µM
18,CC1=NN(C(=O)c2c(Br)cnn2C)C(O)(C(F)(F)F)C1 (configuration not stated),inactive
19,COc1ccc2oc(=O)c(-c3nc(-c4ccc(C)c(C)c4)cs3)cc2c1,inactive
20,Cc1cc(C(=O)N2CCNCC2)c2ccccc2n1,"inconclusive: 12.6 µM [inhibitor, full curve]"
21,Cc1ccc(C)c(NC(=O)c2ccc3c(c2)CCN3S(=O)(=O)c2ccccc2)c1,inactive
22,O=C(N[C@H]1[C@H]2CCO[C@H]2[C@@H]1N1CCCC1)c1cc2c(s1)CCCCC2,"inconclusive: 22.4 µM [inhibitor, full curve]"
23,CSc1cccc(NC(=S)NN/C(=N/S(=O)(=O)c2ccccc2)N2CCCC2)c1,active: 44.7 µM

row,SMILES,Potency
1,CC(C)(C)c1ccc(NC(=O)c2ccsc2)cc1,inactive
2,CC1CC(C)CN(C(=O)CCc2nnc3ccc(N4CCCCC4)nn23)C1 (configuration not stated),"inconclusive: 56.2 µM [inhibitor, partial curve, poor fit]"
3,C=CCOC(=O)C1=C(C)N=C2SC=C(CC(=O)NCc3ccc(F)cc3)N2C1c1ccccc1C (configuration not stated),"inconclusive: 20 µM [inhibitor, full curve]"
4,CCc1ccc(C2c3c(-c4ccccc4)n[nH]c3C(=O)N2c2ccc(C(=O)O)cc2)cc1 (configuration not stated),active: 39.8 µM
5,O=C1c2ccccc2C(Nc2cc(Cl)cc(Cl)c2)N1c1cccnc1 (configuration not stated),inactive
6,C=CCN1C(=O)/C(=C2/Sc3ccccc3N2CCCS(=O)(=O)O)SC1=S,"inconclusive: 44.7 µM [inhibitor, partial curve, poor fit]"
7,CC(C)C1Cc2nc(Cl)c(C#N)cc2CO1 (configuration not stated),"inconclusive: 100 µM [inhibitor, partial curve, poor fit]"
8,O=C1C=CC(=O)N1c1cccc(-c2ccccc2)c1,"inconclusive: 3.16 µM [inhibitor, full curve, poor fit]"
9,CC(=O)c1c(C)oc2ccc(NS(=O)(=O)c3cccs3)cc12,inactive
10,O=C(NCc1ccco1)c1ccc(-c2ccc3nccn3c2)cc1,"inconclusive: 112 µM [inhibitor, single point]"
11,COc1ccc(CSCCc2n[nH]c(=S)n2-c2ccccc2)cc1C,"inconclusive: 39.8 µM [inhibitor, partial curve, poor fit]"
12,C=C(C)C#CC(Cc1ccccc1)NCC1CC1 (configuration not stated),"inconclusive: 31.6 µM [inhibitor, partial curve, poor fit]"
13,Cc1ccc(SCC(=O)Nc2cccc(C)c2)cc1,inactive
14,COc1cccc(CC(=O)Nc2ccc(S(=O)(=O)Nc3nc(C)cc(C)n3)cc2)c1,inactive
15,O=c1[nH]c2ccccc2c2oc(CCl)nc12,"inconclusive: 39.8 µM [inhibitor, partial curve, poor fit]"
16,C=CCn1c(-c2cccn(Cc3cccc(Cl)c3)c2=O)n[nH]c1=S,"inconclusive: 141 µM [inhibitor, partial curve, poor fit]"
17,COc1cc(N(Cc2ccccc2)Cc2ccccc2)c2ncn(C(C)C)c2c1,inactive
18,O=C(/C=C/c1ccco1)NC(=S)Nc1nc(-c2ccc3ccccc3c2)cs1,"inconclusive: 44.7 µM [inhibitor, partial curve, poor fit]"
19,COc1ccc(-c2[nH]ncc2CN2CC[C@H]3CC[C@@H](C2)N3)cc1,"inconclusive: 2.24 µM [inhibitor, full curve, poor fit]"
20,O=C1NCCN/C1=C\C(=O)c1cccc(Br)c1,"inconclusive: 112 µM [inhibitor, single point]"
21,COc1ccccc1NC(=O)c1ccccc1NC(=O)c1ccccc1C(=O)O,active: 1.78 µM
22,O=S(=O)(NCCc1csc2nc(-c3ccc(Cl)cc3)nn12)c1ccc2c(c1)OCCO2,inactive
23,Cc1ccc(C)c(NC2=C(Cl)C(=O)OC2OC(C)C)c1 (configuration not stated),"inconclusive: 112 µM [inhibitor, single point]"

# Of the compounds above, three have bromine:
row,SMILES,Potency
4,O=S(=O)(c1ccc(Oc2ccc(Br)cc2)cc1)N1CCOCC1,inactive
18,CC1=NN(C(=O)c2c(Br)cnn2C)C(O)(C(F)(F)F)C1 (configuration not stated),inactive
20,O=C1NCCN/C1=C\C(=O)c1cccc(Br)c1,"inconclusive: 112 µM [inhibitor, single point]"

# The listing continues.

row,SMILES,Potency
1,COc1ccc(OC)c(NC(=O)Cn2cnc3c(cnn3-c3ccccc3)c2=O)c1,inactive
2,O=C(CSc1ccncc1)N1CCCC(O)(CN2CCCC2)C1 (configuration not stated),active: 25.1 µM
3,COc1ccc(C2C(C#N)=C(N)Oc3cc(C)n(Cc4ccncc4)c(=O)c32)cc1 (configuration not stated),inactive
4,CCn1c(=O)c(-c2noc(C(=O)N3CCCCC3)n2)nn(-c2ccc(C)cc2)c1=O,"inconclusive: 50.1 µM [inhibitor, partial curve, poor fit]"
5,COC(=O)c1ccc2c(=O)n(CCCCCC(=O)NCc3ccc(OC)cc3)c(=O)[nH]c2c1,"inconclusive: 112 µM [inhibitor, partial curve, poor fit]"
6,CCOC(=O)C1(CCOc2ccccc2)CCN(Cc2ccc(O)cc2)CC1,inactive
7,COc1ccc(S(=O)(=O)N(C)C[C@H]2OCc3cn(nn3)CCCC(=O)N([C@H](C)CO)C[C@@H]2C)cc1,"inconclusive: 35.5 µM [inhibitor, partial curve, poor fit]"
8,CC(C)COc1ccc(CNC(=S)N/N=C/c2ccc([N+](=O)[O-])cc2)cc1,inactive
9,O=C(O)CNC(=O)c1cc(-c2ccccn2)nc2ccccc12,"inconclusive: 0.398 µM [inhibitor, full curve, poor fit]"
10,Cc1scc(C(=O)Nc2ccc3c(c2)CCC3)c1C,inactive
11,CCSC1=C(C#N)C(c2ccc(Cl)cc2)C2=C(CCCC2=O)N1 (configuration not stated),"inconclusive: 79.4 µM [inhibitor, single point] and inconclusive: 100 µM [inhibitor, single point]"
12,CCOC(=O)c1[nH]c(C)c(C(=O)OCC(=O)OC)c1C,inactive
13,CC(O)(c1ccccc1)c1nc(-c2ccc(Cl)cc2)cs1 (configuration not stated),"inconclusive: 44.7 µM [inhibitor, partial curve, poor fit]"
14,CCNc1nc(-c2[nH]c(C)c(C(=O)OC)c2C)cs1,"inconclusive: 126 µM [inhibitor, partial curve, poor fit]"
15,CCN(CC)C(=O)C(NC(=O)c1cccc(OC)c1)C1CCN(C(=O)c2ccc3c(c2)OCO3)CC1 (configuration not stated),inactive
16,CC(=O)Nc1ccc(SCC(=O)NC(=O)c2ccc(S(=O)(=O)N(C)C)cc2)cc1,"inconclusive: 89.1 µM [inhibitor, single point]"
17,COc1ccc(-c2c(C#N)c(N)nc3sc(C(=O)c4ccccc4)c(N)c23)cc1,inactive
18,Cc1cc(NC(=O)c2cc(-c3ccco3)on2)nn1Cc1ccc(Cl)cc1,"inconclusive: 44.7 µM [inhibitor, partial curve, poor fit]"
19,COc1ccccc1CNS(=O)(=O)c1ccc(-c2cc(C)no2)cc1,inactive
20,CSCCC(C)N1CCC(Oc2ccc(C(=O)N3CCCC3)cc2)CC1 (configuration not stated),"inconclusive: 35.5 µM [inhibitor, partial curve, poor fit]"
21,Cc1nnsc1C(=O)N[C@H]1CCN(C(=O)COCC(=O)O)[C@H](C(=O)N[C@H](Cc2ccccc2)C(N)=O)C1,inactive
